Literature values in patent US20230073449A1, “STROMA-FREE T CELL DIFFERENTIATION FROM HUMAN PLURIPOTENT STEM CELLS” (THE CHILDREN'S MEDICAL CENTER CORPORATION, priority 2020, published 2023).

Chains of the proteins cited; added tags and fusions are not shown.
UniProt Q15910, whole entry: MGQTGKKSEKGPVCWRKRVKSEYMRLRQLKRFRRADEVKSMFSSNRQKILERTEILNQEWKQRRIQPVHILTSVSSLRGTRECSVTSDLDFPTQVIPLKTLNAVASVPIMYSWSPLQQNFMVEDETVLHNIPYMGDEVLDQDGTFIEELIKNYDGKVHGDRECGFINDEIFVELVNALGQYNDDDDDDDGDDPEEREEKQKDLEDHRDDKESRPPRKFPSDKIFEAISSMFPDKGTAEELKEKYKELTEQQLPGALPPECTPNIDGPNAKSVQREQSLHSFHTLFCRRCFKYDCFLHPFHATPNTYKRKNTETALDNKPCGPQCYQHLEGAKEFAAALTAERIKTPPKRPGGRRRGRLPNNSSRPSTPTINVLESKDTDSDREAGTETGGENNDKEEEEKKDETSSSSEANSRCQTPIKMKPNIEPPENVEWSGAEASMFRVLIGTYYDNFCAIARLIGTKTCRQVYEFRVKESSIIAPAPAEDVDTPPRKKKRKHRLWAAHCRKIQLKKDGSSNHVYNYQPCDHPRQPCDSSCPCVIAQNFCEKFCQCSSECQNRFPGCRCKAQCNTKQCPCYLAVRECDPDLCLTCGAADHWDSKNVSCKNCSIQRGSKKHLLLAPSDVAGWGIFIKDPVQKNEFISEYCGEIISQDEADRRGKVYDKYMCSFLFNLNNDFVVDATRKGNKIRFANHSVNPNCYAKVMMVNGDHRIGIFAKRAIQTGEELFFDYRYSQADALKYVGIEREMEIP

Target: polycomb repressive complex 2 (PRC2) (Homo sapiens, UniProt Q15910)
Details: PRC2, at 10 μM; cited from earlier work

For `O=C(O)c1ccc2c(c1)nc(NC(=O)c1ccccc1)n2CCCc1ccccc1` [BRD9539], the activity remaining is given as 43%.
